Publication PMC10667345
These are yes or no findings as the source states them, for the method shown. Binding seen in cells or lysates may run through a third protein. Some entries that bind do so weakly or less than the wild type. Sequences can lack the tags named with a protein.

Protein sequences, listed by entry. Tags and fused reporters are not part of them.
UniProt P37238: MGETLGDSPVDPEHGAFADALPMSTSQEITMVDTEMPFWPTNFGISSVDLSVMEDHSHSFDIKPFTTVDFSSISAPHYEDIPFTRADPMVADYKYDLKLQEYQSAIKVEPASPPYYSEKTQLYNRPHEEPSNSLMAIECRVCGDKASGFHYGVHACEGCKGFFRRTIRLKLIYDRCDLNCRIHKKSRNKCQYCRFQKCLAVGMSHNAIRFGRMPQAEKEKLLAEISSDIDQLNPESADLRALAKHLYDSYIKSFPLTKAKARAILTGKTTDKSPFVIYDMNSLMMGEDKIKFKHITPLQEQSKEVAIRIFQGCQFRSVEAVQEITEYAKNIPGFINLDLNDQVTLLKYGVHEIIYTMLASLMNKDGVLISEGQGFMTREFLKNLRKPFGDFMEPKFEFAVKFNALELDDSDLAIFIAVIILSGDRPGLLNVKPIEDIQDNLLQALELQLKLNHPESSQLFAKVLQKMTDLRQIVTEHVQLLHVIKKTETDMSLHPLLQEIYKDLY

T1: Twist1 coupled with Flag-Tag (Twist1-OE lentivirus) (UniProt P26687)
T1 sequence: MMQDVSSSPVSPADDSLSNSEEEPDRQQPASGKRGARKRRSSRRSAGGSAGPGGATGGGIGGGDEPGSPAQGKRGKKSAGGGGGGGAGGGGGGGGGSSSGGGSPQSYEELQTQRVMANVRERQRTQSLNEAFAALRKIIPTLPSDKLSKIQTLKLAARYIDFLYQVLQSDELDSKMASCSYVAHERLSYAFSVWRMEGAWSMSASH

T2: RXRα-ECFP (UniProt P28700)
T2 sequence: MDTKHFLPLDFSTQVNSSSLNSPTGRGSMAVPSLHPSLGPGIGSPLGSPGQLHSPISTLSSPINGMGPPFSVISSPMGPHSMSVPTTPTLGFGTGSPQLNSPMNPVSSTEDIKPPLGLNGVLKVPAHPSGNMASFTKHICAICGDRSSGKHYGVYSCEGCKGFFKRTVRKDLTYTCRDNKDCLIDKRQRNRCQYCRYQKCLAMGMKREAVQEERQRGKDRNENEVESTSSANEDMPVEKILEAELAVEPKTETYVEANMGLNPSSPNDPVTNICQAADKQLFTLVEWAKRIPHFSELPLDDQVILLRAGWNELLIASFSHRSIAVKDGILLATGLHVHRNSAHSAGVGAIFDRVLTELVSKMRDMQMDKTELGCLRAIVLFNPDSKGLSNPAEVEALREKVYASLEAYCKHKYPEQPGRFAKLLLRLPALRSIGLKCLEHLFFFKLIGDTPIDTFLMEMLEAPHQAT

B1: RXRα-ECFP (protein, UniProt P28700 1-467)
chain: T2 sequence
B2: Twist1 coupled with Flag-Tag (Twist1-OE lentivirus) (protein, UniProt P26687 1-206)
chain: T1 sequence

Assays:
Assay in all cases: co-IP; lysates (NP-40 lysis buffer) of transfected Twist1-OE 3T3-L1 and control cells; anti-GFP mAb agarose or anti-Flag-Tag mAb agarose, 4 °C overnight; blots with anti-GFP and anti-Twist1 antibodies
[1] = target: T1, Twist1 coupled with Flag-Tag (Twist1-OE lentivirus)
RXRα-ECFP = target: T2, RXRα-ECFP
PPARγ-EYFP = PPARγ-EYFP (UniProt P37238)

Row | Molecule | binding [1] | binding (RXRα-ECFP) | binding (PPARγ-EYFP)
1 | PPARγ-EYFP (from UniProt P37238 1-505) | binds |  | 
2 | B1 | binds |  | 
3 | B2 |  | binds | binds
